From PubChem BioAssay (NCATS) come the findings set out here.

SMILES strings stand for the structures. Some of the results follow. The main result of the screen is listed elsewhere. These columns were measured beside it and carry no call. Compounds called inactive in the main read-out are mostly missing here. Potencies come from curve fits of mixed quality, noted in brackets.

Assay [1] can be described thus: Validation of Assay for Modulators of Lamin A Splicing (AID 1459). The conditions noted are these: Lamin A splicing dual RFP/GFP fluorescence reporter, ratio. A digest of the protocol: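 S3 HeLa stably expressing lamin A-EGFP splicing minigene and DsRed2, 600 cells/well in Opti-MEM with 2% FBS, treated 48 h at 37C; laser-scanning cytometry gives GFP/RFP total intensity ratio; ancitabine positive control, 0.5% DMSO vehicle.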

A short description of assay [2]: qHTS Assay for Lipid Storage Modulators (AID 1519). The conditions noted are these: Drosophila S3 cells, BODIPY lipid droplet/cell ratio, laser cytometry, cells loaded with oleic acid. The method in brief:
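Cells seeded at 5,000 per well were treated with compounds over a concentration series and loaded with oleic acid (400 uM, as added). Lipid droplet fluorescence (488 nm excitation, 500-530 nm channel) was read by laser-scanning cytometry and normalized to 20 uM Triacsin C.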
For orientation: In qHTS, concentration-response curves come from the screen itself.

A short description of assay [3]: qHTS Assay for Modulators of Human Peripheral Myelin Protein 22 (PMP22) Expression/Activity (AID 1967). The note with it: Cell-based PMP22 reporter, dual-color luciferase ratio. A digest of the protocol:
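Mouse MSC80 Schwann cells carrying Pmp22 promoter–green click beetle luciferase plus EF-alpha–red luciferase control, dosed 24 h at 37 °C. Dual-filter luminescence, overlap-corrected; %Activity from green/red ratio normalised to untreated cells, concentration-response curves fitted.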

[4] abbreviates: measured here: cell count channel max response.
The mark [5] stands for this setting: measured here: lipid channel max response.

On to `CCCCCCCCCCCCCCCC(=O)NCC(COP(=O)([O-])OCC[N+](C)(C)C)OCC` (stereo not given), for which the AC50 is 10 µM [falling, partial curve] in assay [1] (measured here: GFP channel) and 5.01 µM [falling, partial curve] in assay [1] (measured here: RFP channel).

`NS(=O)(=O)c1cc2c(cc1Cl)NC(C1CC3C=CC1C3)NS2(=O)=O` (stereo not given): the AC50 was 6.31 µM [falling, single point] in assay [1] (measured here: GFP channel) and 6.31 µM [falling, single point] in assay [1] (measured here: RFP channel). Also, the max response in assay [2] (setting [4]) was -29.8%; in assay [2] (setting [5]), -31.6%.

`O=C(Nc1cccc(C(=O)Nc2ccc(S(=O)(=O)O)c3cc(S(=O)(=O)O)cc(S(=O)(=O)O)c23)c1)Nc1cccc(C(=O)Nc2ccc(S(=O)(=O)O)c3cc(S(=O)(=O)O)cc(S(=O)(=O)O)c23)c1`: the half-maximal activity concentration (AC50) in assay [1] (measured here: GFP channel) is 5.62 µM [falling, single point]; in assay [1] (measured here: RFP channel), 5.62 µM [falling, single point]. Also, the results for the max response in assay [2] (setting [4]) and in assay [2] (setting [5]) were 40.8% and 42.6%, respectively.

As for `Cc1scc2c1N(C(=O)CN1CCN(C)CC1)c1ccccc1NC2=O`, the concentration at half-maximal activity (AC50) in assay [1] (measured here: GFP channel) was 5.62 µM [falling, full curve]; in assay [1] (measured here: RFP channel), 5.62 µM [falling, full curve].

Consider `CC[C@@H](C)[C@H]1O[C@]2(CC[C@@H]1C)C[C@@H]1C[C@@H](C/C=C(\C)[C@@H](O[C@H]3C[C@H](OC)[C@@H](O[C@H]4C[C@H](OC)[C@@H](O)[C@H](C)O4)[C@H](C)O3)[C@@H](C)/C=C/C=C3\CO[C@@H]4[C@H](O)C(C)=C[C@@H](C(=O)O1)[C@]34O)O2`, for which the concentration at half-maximal activity (AC50) in assay [1] (measured here: GFP channel) was 11.2 µM [falling, partial curve]; in assay [1] (measured here: RFP channel), 7.94 µM [falling, partial curve]; in assay [2] (measured here: cell number channel AC50) it was 17.8 µM [falling, full curve, poor fit]; in assay [2] (measured here: lipid (BODIPY) channel AC50) it was 20 µM [falling, full curve, poor fit]; in assay [3] (measured here: green reporter channel AC50, mouse Pmp22 promoter in mouse Schwann cells) it was 15.1 µM [falling, full curve]; in assay [3] (measured here: red reporter channel AC50, EF-alpha promoter control reporter in MSC80 mouse Schwann cells), 10.7 µM [falling, full curve]. The max response in assay [2] (setting [4]) is -75.2%; in assay [2] (setting [5]) it was -80%.

What is called AC50 is the midpoint of the concentration-response curve, whichever way the signal moves.
